The other results are listed elsewhere or left out. Residues, ends and D or L forms follow the SMILES beside them. *: point of attachment. Cbz = O=C(OCc1ccccc1)*
How the values were obtained:
Test in all cases: log2 fold change, soluble protein after heating vs DMSO (PISA); higher = thermal stabilisation; K562 cells, 10 uM, 30 min; active = over 0.2 and 3.5 SD of the protein, either way, in both replicates (recomputed)
IRAK-1-4 Inhibitor I = compound: C1COCCN1CCN2C3=CC=CC=C3N=C2NC(=O)C4=CC(=CC=C4)[N+](=O)[O-] [IRAK-1-4 Inhibitor I]
Method in brief: (§1)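 K562 cells at 2×10^6 cells/mL were exposed to 10 μM compound for 30 min, then aliquots were heated for 3 min across 48°C-58°C, pooled, and extracted in PBS containing 0.5% NP-40 at 4°C. The supernatant after 21,000xg for 90 min was taken as soluble protein and measured by TMTpro 16plex LC-MS/MS with channel sums equalised. Thermal stability is reported relative to control samples, with values from duplicates. Fold changes are given on a log2 scale.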

Protein sequences, listed by entry. Tags and fused reporters are not part of them. Lines headed by an entry give the natural chain unless they say otherwise; changes in a name come on top.
UniProt Q86YS7: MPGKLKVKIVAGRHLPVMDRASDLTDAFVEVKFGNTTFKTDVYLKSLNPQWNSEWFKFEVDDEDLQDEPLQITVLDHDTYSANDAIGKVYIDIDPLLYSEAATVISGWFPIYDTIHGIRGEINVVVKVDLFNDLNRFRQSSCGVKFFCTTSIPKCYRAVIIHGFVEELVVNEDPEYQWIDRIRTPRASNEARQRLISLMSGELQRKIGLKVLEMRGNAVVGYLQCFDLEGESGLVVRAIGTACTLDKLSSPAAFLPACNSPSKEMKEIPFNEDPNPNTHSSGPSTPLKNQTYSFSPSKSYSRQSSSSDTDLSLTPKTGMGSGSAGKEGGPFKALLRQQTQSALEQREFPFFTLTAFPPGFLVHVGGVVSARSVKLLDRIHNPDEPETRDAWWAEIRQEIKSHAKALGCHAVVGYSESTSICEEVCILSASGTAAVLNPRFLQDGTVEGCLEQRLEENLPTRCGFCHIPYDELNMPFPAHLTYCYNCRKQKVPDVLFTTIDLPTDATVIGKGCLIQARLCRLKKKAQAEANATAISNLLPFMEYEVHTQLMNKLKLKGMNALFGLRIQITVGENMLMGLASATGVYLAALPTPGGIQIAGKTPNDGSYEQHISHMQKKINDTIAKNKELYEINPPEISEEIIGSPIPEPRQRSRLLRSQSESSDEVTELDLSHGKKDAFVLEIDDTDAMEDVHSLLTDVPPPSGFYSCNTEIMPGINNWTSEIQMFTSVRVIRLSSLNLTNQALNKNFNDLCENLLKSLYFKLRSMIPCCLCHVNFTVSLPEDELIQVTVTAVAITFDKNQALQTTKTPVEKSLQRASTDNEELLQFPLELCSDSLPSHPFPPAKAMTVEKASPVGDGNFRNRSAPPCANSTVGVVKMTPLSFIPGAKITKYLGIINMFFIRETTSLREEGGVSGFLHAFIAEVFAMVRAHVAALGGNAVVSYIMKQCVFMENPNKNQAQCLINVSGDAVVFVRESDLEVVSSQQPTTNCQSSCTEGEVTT
UniProt Q96K31: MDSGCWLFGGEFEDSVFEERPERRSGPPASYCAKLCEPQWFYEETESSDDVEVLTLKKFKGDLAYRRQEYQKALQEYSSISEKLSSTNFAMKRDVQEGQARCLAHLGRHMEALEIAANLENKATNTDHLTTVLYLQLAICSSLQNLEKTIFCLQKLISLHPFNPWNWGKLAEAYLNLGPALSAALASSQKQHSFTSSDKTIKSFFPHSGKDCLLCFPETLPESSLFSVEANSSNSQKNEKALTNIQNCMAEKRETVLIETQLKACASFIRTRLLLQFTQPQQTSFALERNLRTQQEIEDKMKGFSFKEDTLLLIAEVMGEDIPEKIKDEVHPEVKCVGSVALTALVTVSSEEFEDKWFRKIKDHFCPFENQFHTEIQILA
UniProt Q6P1X6: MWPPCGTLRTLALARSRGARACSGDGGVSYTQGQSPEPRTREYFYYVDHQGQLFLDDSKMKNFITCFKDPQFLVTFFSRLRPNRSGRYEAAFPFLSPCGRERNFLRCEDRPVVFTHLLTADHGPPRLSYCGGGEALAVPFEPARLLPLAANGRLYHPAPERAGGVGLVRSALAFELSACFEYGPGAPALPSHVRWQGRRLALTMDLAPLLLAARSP
UniProt P41223: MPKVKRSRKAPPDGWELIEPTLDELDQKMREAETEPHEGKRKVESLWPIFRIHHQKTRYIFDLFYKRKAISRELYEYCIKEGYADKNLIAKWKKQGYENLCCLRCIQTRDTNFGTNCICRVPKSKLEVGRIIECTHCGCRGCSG
UniProt Q07021: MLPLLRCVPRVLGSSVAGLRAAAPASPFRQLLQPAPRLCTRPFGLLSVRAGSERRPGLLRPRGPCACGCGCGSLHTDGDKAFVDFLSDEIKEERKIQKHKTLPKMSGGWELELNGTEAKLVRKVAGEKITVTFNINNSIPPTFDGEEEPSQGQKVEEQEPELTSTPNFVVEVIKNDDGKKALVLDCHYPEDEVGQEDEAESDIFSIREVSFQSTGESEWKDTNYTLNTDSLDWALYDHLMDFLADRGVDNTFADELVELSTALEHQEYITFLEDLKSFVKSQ
UniProt O43852: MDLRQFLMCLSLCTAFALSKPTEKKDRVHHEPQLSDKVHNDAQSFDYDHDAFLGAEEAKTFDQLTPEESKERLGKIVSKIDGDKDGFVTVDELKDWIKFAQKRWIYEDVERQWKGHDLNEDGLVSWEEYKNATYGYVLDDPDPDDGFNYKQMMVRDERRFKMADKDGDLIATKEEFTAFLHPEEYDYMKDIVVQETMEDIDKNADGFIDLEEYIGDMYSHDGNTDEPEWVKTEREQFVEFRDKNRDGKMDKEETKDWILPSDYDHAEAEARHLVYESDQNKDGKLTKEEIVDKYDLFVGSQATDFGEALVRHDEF
UniProt O43709: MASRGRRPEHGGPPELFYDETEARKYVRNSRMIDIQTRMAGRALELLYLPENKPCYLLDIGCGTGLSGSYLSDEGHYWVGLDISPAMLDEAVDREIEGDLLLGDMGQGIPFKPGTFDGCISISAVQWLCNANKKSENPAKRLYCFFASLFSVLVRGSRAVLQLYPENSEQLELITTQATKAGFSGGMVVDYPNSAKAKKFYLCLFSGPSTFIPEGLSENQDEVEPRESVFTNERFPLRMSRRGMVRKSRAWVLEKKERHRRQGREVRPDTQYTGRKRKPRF
UniProt Q8N6N3: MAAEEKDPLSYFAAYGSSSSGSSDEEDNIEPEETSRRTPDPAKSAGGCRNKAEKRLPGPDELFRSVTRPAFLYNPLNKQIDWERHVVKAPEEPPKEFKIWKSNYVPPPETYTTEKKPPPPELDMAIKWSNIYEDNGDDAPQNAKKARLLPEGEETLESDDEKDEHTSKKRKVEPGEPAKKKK
UniProt O43683: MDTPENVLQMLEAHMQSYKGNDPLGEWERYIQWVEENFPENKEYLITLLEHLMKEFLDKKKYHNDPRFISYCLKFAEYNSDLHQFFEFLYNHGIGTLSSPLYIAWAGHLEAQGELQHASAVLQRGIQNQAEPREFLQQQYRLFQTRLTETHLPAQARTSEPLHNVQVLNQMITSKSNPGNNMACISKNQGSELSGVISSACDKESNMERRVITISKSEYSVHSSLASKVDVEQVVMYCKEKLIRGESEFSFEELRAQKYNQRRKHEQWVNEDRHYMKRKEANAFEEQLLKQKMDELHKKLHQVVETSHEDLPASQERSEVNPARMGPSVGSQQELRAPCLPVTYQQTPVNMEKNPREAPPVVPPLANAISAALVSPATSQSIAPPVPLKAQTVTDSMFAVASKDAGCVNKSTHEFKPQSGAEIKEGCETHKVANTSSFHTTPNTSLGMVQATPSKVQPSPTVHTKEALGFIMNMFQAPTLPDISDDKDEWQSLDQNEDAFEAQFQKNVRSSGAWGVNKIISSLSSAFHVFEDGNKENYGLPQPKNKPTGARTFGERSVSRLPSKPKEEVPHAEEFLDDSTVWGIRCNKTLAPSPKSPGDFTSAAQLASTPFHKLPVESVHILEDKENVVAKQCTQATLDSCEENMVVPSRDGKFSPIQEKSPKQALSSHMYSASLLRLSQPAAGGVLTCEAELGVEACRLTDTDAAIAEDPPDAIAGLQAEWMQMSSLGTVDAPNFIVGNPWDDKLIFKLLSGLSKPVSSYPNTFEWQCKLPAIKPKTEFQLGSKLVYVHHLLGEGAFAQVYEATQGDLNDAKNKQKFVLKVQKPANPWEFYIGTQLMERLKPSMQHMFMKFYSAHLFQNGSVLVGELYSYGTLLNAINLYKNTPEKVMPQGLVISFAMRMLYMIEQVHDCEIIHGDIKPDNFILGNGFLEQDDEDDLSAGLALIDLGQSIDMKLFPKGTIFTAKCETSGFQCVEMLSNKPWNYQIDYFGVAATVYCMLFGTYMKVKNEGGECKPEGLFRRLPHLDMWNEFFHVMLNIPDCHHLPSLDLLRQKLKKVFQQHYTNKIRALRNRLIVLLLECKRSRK
UniProt Q6UWU4: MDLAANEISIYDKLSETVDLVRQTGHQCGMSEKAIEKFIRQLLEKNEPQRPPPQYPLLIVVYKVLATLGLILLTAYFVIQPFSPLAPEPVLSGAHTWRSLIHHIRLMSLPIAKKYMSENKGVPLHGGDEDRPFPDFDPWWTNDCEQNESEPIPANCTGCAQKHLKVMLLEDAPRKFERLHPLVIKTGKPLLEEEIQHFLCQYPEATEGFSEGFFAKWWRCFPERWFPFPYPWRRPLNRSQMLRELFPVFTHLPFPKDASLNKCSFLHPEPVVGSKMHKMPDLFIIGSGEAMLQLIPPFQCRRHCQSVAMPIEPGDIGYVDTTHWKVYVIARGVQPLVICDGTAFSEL
UniProt P40121: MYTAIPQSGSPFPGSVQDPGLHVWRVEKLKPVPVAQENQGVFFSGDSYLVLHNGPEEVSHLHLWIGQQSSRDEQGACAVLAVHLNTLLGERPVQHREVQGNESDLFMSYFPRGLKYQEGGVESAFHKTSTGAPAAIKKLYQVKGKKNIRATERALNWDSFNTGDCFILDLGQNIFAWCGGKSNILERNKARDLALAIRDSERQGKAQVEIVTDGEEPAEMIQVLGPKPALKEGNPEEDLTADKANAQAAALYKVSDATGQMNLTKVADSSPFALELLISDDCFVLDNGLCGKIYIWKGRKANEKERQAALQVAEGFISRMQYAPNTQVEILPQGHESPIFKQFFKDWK
UniProt Q9Y2G2: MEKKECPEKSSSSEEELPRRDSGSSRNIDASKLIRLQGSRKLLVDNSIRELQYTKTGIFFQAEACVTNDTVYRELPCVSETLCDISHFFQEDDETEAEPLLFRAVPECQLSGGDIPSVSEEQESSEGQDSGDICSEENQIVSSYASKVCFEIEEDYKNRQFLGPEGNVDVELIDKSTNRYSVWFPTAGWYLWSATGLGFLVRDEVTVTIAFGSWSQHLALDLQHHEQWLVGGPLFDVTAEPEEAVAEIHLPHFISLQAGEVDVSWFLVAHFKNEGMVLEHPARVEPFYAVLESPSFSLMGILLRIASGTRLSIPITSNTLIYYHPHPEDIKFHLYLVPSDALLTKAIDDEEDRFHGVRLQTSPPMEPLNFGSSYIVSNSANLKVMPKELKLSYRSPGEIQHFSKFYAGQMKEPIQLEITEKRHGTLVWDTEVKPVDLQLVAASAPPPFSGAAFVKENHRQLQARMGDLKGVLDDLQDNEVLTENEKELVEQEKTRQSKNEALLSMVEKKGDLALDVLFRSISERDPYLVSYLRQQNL
UniProt O75155: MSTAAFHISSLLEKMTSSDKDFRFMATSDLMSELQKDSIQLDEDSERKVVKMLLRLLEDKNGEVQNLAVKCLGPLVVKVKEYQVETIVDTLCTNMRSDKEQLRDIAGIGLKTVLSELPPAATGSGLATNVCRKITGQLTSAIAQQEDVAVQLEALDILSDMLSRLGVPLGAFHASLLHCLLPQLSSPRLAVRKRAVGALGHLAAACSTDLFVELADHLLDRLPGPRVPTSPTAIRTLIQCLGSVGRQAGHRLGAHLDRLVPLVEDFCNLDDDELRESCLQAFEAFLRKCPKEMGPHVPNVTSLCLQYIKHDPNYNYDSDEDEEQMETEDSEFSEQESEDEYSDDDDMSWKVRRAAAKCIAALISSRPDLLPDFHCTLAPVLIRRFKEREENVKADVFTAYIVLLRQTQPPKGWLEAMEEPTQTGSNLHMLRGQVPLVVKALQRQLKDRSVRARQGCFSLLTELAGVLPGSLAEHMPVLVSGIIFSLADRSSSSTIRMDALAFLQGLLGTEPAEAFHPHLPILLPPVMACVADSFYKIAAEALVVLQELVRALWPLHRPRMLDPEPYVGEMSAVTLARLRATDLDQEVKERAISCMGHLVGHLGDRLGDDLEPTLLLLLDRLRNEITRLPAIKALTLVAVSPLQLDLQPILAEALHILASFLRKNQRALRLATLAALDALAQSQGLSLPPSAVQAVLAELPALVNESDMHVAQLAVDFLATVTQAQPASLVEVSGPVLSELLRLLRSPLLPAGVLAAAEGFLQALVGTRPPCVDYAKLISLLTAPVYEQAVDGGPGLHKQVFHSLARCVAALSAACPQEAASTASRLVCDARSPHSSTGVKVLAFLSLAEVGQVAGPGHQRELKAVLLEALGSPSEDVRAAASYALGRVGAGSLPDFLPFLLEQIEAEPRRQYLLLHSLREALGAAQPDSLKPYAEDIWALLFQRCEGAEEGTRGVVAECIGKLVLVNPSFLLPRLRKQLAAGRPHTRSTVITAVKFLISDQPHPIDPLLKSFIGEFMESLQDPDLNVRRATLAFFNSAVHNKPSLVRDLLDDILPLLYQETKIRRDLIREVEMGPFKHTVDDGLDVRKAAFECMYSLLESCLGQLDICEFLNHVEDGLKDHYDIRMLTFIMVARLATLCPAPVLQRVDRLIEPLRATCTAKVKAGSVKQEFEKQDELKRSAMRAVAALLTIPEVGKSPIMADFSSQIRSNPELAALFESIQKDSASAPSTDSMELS

ibrutinib = compound: C=CC(=O)N1CCC[C@@H](n2nc(-c3ccc(Oc4ccccc4)cc3)c3c(N)ncnc32)C1 [ibrutinib]
Method in brief: as §1

[1] = compound: CC(=O)c1cnc2ccc(-c3cc(Cl)c(O)c(Cl)c3)nc2c1N[C@H]1CC[C@H](CN(C)C)CC1
Method in brief: as §1

ralimetinib = compound: CC(C)(C)Cn1c(N)nc2ccc(-c3[nH]c(C(C)(C)C)nc3-c3ccc(F)cc3)nc21 [ralimetinib]
Method in brief: as §1

[2] = compound: CC(C)(O)CC(=O)NCCn1ccc2ncnc(Nc3ccc(Oc4cccc(C(F)(F)F)c4)c(Cl)c3)c21
Method in brief: as §1

[3] = compound: CC(C)C1=C2N=C(C=C(N2N=C1)NCC3=CC=CC=C3)NCCCCCCN
Method in brief: as §1

[4] = compound: CC(C)C[C@@H](C=O)NC(=O)[C@H](CC(C)C)NC(=O)[C@H](CC(C)C)NC(=O)OCc1ccccc1
Method in brief: as §1

pinometostat = compound: CC(C)N(C[C@H]1O[C@@H](n2cnc3c(N)ncnc32)[C@H](O)[C@@H]1O)[C@H]1C[C@@H](CCc2nc3cc(C(C)(C)C)ccc3[nH]2)C1 [pinometostat]
Method in brief: as §1

[5] = compound: CC1=C(C(CC(=O)N1)C2=CC=C(C=C2)C(F)(F)F)C(=O)NC3=C(C=C4C(=C3)C=NN4)F
Method in brief: as §1

[6] = compound: CC1=C(C2=C(C=C1)C(=O)C3=CC=CC=C3N2CCCN)C
Method in brief: as §1

[7] = compound: CC1=C(C=C(C=C1)NC(=O)C2=CC(=CC=C2)C(C)(C)C#N)NC3=CC4=C(C=C3)N=CN(C4=O)C
Method in brief: as §1

[8] = compound: CC1=C(C=C(C=C1)NC(=O)C2=CC(=CC=C2)N(C)C)NC(=O)C3=CC=C(C=C3)O
Method in brief: as §1

[9] = compound: CC1=CC=C(C=C1)SC2=C3C=C(SC3=CN=C2)C(=O)N
Method in brief: as §1

[10] = compound: CC1=NC(=CC=C1)C2=C(N=C(N2)C(C)(C)C)C3=CC4=NC=CN=C4C=C3
Method in brief: as §1

Nexturastat A = compound: CCCCN(Cc1ccc(C(=O)NO)cc1)C(=O)Nc1ccccc1 [Nexturastat A]
Method in brief: as §1

vemurafenib = compound: CCCS(=O)(=O)Nc1ccc(F)c(C(=O)c2c[nH]c3ncc(-c4ccc(Cl)cc4)cc23)c1F [vemurafenib]
Method in brief: as §1

[11] = compound: CCCS(=O)(=O)Nc1ccc(F)c(C(=O)c2c[nH]c3ncc(Cl)cc23)c1F
Method in brief: as §1

[12] = compound: CCCc1cc(C)[nH]c(=O)c1CNC(=O)c1cc(-c2ccnc(N3CCN(C)CC3)c2)cc2c1cnn2C(C)C
Method in brief: as §1

givinostat = compound: CCN(CC)Cc1ccc2cc(COC(=O)Nc3ccc(C(=O)NO)cc3)ccc2c1 [givinostat]
Method in brief: as §1

barasertib = compound: CCN(CCCOc1ccc2c(Nc3cc(CC(=O)Nc4cccc(F)c4)[nH]n3)ncnc2c1)CCOP(=O)(O)O [barasertib]
Method in brief: as §1

Measured: log2 fold change

C2CD5 isoform 4 (UniProt Q86YS7)
inactive: IRAK-1-4 Inhibitor I -0.015 | ibrutinib -0.029 | [1] 0 | ralimetinib 0.053 | [2] -0.065 | [3] 0.03 | [4] -0.039 | pinometostat 0.017 | [5] -0.084 | [6] 0.002 | [7] -0.09 | [8] -0.035 | [9] 0.004 | [10] 0.037 | Nexturastat A 0.043 | vemurafenib -0.024 | [11] -0.017 | [12] -0.016 | givinostat 0.182 | barasertib 0.073

C11orf98 (UniProt E9PRG8)
inactive: IRAK-1-4 Inhibitor I -0.147 | ibrutinib 0.067 | [1] 0.046 | ralimetinib 0.146 | [2] 0.07 | [3] 0.02 | [4] 0.113 | pinometostat 0.182 | [5] 0.019 | [6] -0.271 | [7] -0.036 | [8] 0.018 | [9] -0.103 | [10] -0.104 | Nexturastat A 0.236 | vemurafenib -0.095 | [11] -0.121 | [12] 0.078 | givinostat 0.03 | barasertib -0.062

C8orf76 (UniProt Q96K31)
inactive: IRAK-1-4 Inhibitor I 0.048 | ibrutinib -0.043 | [1] -0.035 | ralimetinib 0.108 | [2] -0.083 | [3] 0.058 | [4] 0.02 | pinometostat -0.028 | [5] 0.004 | [6] 0.034 | [7] -0.094 | [8] 0.014 | [9] -0.083 | [10] -0.013 | Nexturastat A -0.037 | vemurafenib 0.048 | [11] -0.091 | [12] 0.017 | givinostat -0.054 | barasertib 0.007

BTF3 (UniProt P20290)
inactive: IRAK-1-4 Inhibitor I 0.033 | ibrutinib -0.014 | [1] 0.009 | ralimetinib -0.052 | [2] 0.054 | [3] 0.051 | [4] -0.008 | pinometostat -0.055 | [5] 0.004 | [6] 0.001 | [7] -0.009 | [8] 0.013 | [9] -0.026 | [10] 0.025 | Nexturastat A -0.042 | vemurafenib 0.001 | [11] -0.008 | [12] 0.006 | givinostat -0.004 | barasertib 0.022

C8orf82 (UniProt Q6P1X6)
inactive: IRAK-1-4 Inhibitor I 0.045 | ibrutinib 0.074 | [1] 0.026 | ralimetinib -0.046 | [2] -0.008 | [3] 0 | [4] -0.046 | pinometostat -0.032 | [5] 0.177 | [6] -0.083 | [7] 0 | [8] 0.024 | [9] -0.009 | [10] 0.012 | Nexturastat A -0.021 | vemurafenib 0.002 | [11] -0.026 | [12] -0.083 | givinostat -0.099 | barasertib 0.006

BUD31 (UniProt P41223)
inactive: IRAK-1-4 Inhibitor I 0.062 | ibrutinib 0.015 | [1] 0.1 | ralimetinib 0.023 | [2] -0.028 | [3] 0.103 | [4] -0.03 | pinometostat -0.044 | [5] 0.022 | [6] 0.046 | [7] 0.034 | [8] -0.011 | [9] 0.002 | [10] 0.012 | Nexturastat A -0.003 | vemurafenib -0.048 | [11] -0.018 | [12] 0.137 | givinostat -0.137 | barasertib 0

C1QBP (UniProt Q07021)
inactive: IRAK-1-4 Inhibitor I 0.035 | ibrutinib -0.004 | [1] -0.04 | ralimetinib 0.054 | [2] 0.002 | [3] 0.05 | [4] 0.007 | pinometostat -0.033 | [5] 0.017 | [6] -0.04 | [7] 0.005 | [8] -0.017 | [9] -0.039 | [10] 0.015 | Nexturastat A -0.04 | vemurafenib 0.037 | [11] -0.006 | [12] 0.096 | givinostat -0.031 | barasertib 0.008

CALU isoform 3 (UniProt O43852)
inactive: IRAK-1-4 Inhibitor I 0.046 | ibrutinib -0.016 | [1] 0.01 | ralimetinib -0.037 | [2] 0.024 | [3] 0.068 | [4] -0.011 | pinometostat -0.026 | [5] 0.024 | [6] -0.052 | [7] -0.023 | [8] 0.016 | [9] -0.013 | [10] -0.01 | Nexturastat A -0.053 | vemurafenib -0.008 | [11] -0.035 | [12] -0.005 | givinostat -0.007 | barasertib -0.014

BUD23 isoform 3 (UniProt O43709)
inactive: IRAK-1-4 Inhibitor I 0.001 | ibrutinib -0.015 | [1] -0.064 | ralimetinib 0.071 | [2] 0.007 | [3] -0.054 | [4] 0.11 | pinometostat 0.106 | [5] -0.032 | [6] 0.032 | [7] 0.041 | [8] 0.013 | [9] -0.067 | [10] -0.055 | Nexturastat A -0.005 | vemurafenib -0.034 | [11] -0.071 | [12] 0.038 | givinostat 0.015 | barasertib 0.002

C1orf52 (UniProt Q8N6N3)
inactive: IRAK-1-4 Inhibitor I 0.066 | ibrutinib -0.033 | [1] 0.025 | ralimetinib -0.064 | [2] 0.051 | [3] 0.087 | [4] 0.098 | pinometostat -0.007 | [5] 0.016 | [6] 0.044 | [7] -0.008 | [8] 0.039 | [9] -0.033 | [10] 0.012 | Nexturastat A 0.009 | vemurafenib -0.016 | [11] 0.014 | [12] -0.042 | givinostat -0.029 | barasertib -0.016

BUB1 (UniProt O43683)
inactive: IRAK-1-4 Inhibitor I 0 | ibrutinib -0.033 | [1] -0.031 | ralimetinib -0.137 | [2] -0.026 | [3] -0.073 | [4] -0.042 | pinometostat 0.019 | [5] 0.128 | [6] 0.125 | [7] -0.049 | [8] 0.107 | [9] -0.05 | [10] -0.085 | Nexturastat A -0.059 | vemurafenib -0.075 | [11] -0.168 | [12] -0.168 | givinostat 0.066 | barasertib 0.035

C6orf89 isoform 2 (UniProt Q6UWU4)
inactive: IRAK-1-4 Inhibitor I 0 | ibrutinib 0.004 | [1] -0.002 | ralimetinib -0.023 | [2] -0.023 | [3] -0.069 | [4] 0.045 | pinometostat -0.033 | [5] 0.033 | [6] -0.008 | [7] -0.028 | [8] -0.005 | [9] 0.013 | [10] 0.035 | Nexturastat A -0.073 | vemurafenib 0.025 | [11] 0.008 | [12] -0.051 | givinostat -0.084 | barasertib -0.029

Pulled one by one from above (2):
BUB1 (UniProt O43683)
inactive: IRAK-1-4 Inhibitor I 0 | ibrutinib -0.033 | [1] -0.031 | ralimetinib -0.137 | [2] -0.026 | [3] -0.073 | [4] -0.042 | pinometostat 0.019 | [5] 0.128 | [6] 0.125 | [7] -0.049 | [8] 0.107 | [9] -0.05 | [10] -0.085 | Nexturastat A -0.059 | vemurafenib -0.075 | [11] -0.168 | [12] -0.168 | givinostat 0.066 | barasertib 0.035

C1QBP (UniProt Q07021)
inactive: IRAK-1-4 Inhibitor I 0.035 | ibrutinib -0.004 | [1] -0.04 | ralimetinib 0.054 | [2] 0.002 | [3] 0.05 | [4] 0.007 | pinometostat -0.033 | [5] 0.017 | [6] -0.04 | [7] 0.005 | [8] -0.017 | [9] -0.039 | [10] 0.015 | Nexturastat A -0.04 | vemurafenib 0.037 | [11] -0.006 | [12] 0.096 | givinostat -0.031 | barasertib 0.008

Further records follow.

CAPG (UniProt P40121)
inactive: IRAK-1-4 Inhibitor I -0.02 | ibrutinib -0.04 | [1] 0.053 | ralimetinib 0 | [2] -0.072 | [3] -0.077 | [4] -0.036 | pinometostat -0.014 | [5] -0.006 | [6] 0.016 | [7] 0.079 | [8] -0.022 | [9] 0.003 | [10] 0.038 | Nexturastat A -0.021 | vemurafenib 0.042 | [11] 0.047 | [12] -0.01 | givinostat 0.024 | barasertib 0.058

CAND1 (UniProt Q86VP6)
inactive: IRAK-1-4 Inhibitor I 0.043 | ibrutinib 0.033 | [1] 0.024 | ralimetinib -0.037 | [2] -0.026 | [3] 0.049 | [4] -0.06 | pinometostat -0.063 | [5] 0.026 | [6] -0.002 | [7] -0.012 | [8] 0.02 | [9] 0.055 | [10] 0.035 | Nexturastat A -0.015 | vemurafenib -0.026 | [11] 0.033 | [12] -0.002 | givinostat -0.004 | barasertib 0.005

CARD8 isoform 5 (UniProt Q9Y2G2)
inactive: IRAK-1-4 Inhibitor I 0.032 | ibrutinib 0.11 | [1] -0.049 | ralimetinib 0.005 | [2] -0.055 | [3] 0.08 | [4] -0.011 | pinometostat -0.015 | [5] 0.06 | [6] -0.003 | [7] -0.117 | [8] -0.216 | [9] -0.316 | [10] 0.003 | Nexturastat A 0.135 | vemurafenib 0.042 | [11] -0.67 | [12] 0.094 | givinostat -0.006 | barasertib 0.012

CAND2 (UniProt O75155)
inactive: IRAK-1-4 Inhibitor I -0.092 | ibrutinib -0.008 | [1] 0.074 | ralimetinib -0.02 | [2] -0.053 | [3] 0.064 | [4] -0.019 | pinometostat 0.081 | [5] 0.01 | [6] -0.121 | [7] -0.028 | [8] 0.001 | [9] -0.054 | [10] -0.037 | Nexturastat A -0.057 | vemurafenib -0.023 | [11] -0.012 | [12] -0.021 | givinostat 0.002 | barasertib 0.013

From the supplement of paper PMC10849652
